{"source": "paper PMC12818720", "about": "(ACS Applied Materials & Interfaces, 2025)", "note": "Strings that start with PEPTIDE1 are HELM notation: dots part the residues, brackets hold end groups and non-standard residues.", "data": [{"assay": "general procedure: Fmoc solid-phase peptide synthesis; Wang resin preloaded with the first amino acid (Fmoc-Lys(Boc)-Wang or Fmoc-Asp(OtBu)-Wang, Novabiochem); HBTU/DIEA", "conditions": "whole synthesis", "units": {"final HPLC purity": "%"}, "values": [{"substance": "F 4D-KHG", "final HPLC purity": 96.8}, {"substance": "PEPTIDE1{F.F.F.F.D}$$$$V2.0", "final HPLC purity": 98.3}, {"substance": "F 4D-GHK", "final HPLC purity": 99.6}]}]}
